Several values for one entry are separate records, joined by “and”; a condition that tells them apart may be missing. Equal entries are not always repeated. The list shows a part of the results. This data set is noisy: repeats of one test often differ as much as different tests do.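 HEK293T cells were given each compound shortly before transfection with a reporter in which red mCherry is followed by the SARS-CoV-2 frameshift element and then GFP in the −1 frame, so GFP appears only after frameshifting.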

The assay relates to SARS-CoV-2 -1 PRF reporter mCherry-FSE-GFP(-1). Description: percent effect, decrease of GFP/mCherry ratio (-1 PRF reporter) relative to controls; higher = stronger frameshift inhibition. The settings on record: 10 µM; 24 h; HEK293T.
As to `CCS(=O)(=O)CCn1c([N+](=O)[O-])cnc1C` [tinidazole], the percent effect was -5.15% and -1.86%.
Turning to `CC(=O)[C@H]1CC[C@H]2[C@@H]3C[C@H](C)C4=CC(=O)CC[C@]4(C)[C@H]3[C@@H](O)C[C@]12C` [medrysone], the percent effect was -1.87% and -2.43%.
In the case of `CC(C(=O)O)c1ccc(-c2ccccc2)c(F)c1` (stereo not given) [flurbiprofen], the percent effect was -3.01% and -5.16%.
`CC[C@H](C)[C@H]1O[C@]2(C=C[C@@H]1C)C[C@@H]1C[C@@H](C/C=C(\C)[C@@H](O[C@H]3C[C@H](OC)[C@@H](O[C@H]4C[C@H](OC)[C@@H](O)[C@H](C)O4)[C@H](C)O3)[C@@H](C)/C=C/C=C3\CO[C@@H]4[C@H](O)C(C)=C[C@@H](C(=O)O1)[C@]34O)O2.CO[C@H]1C[C@H](O[C@H]2[C@H](C)O[C@@H](O[C@@H]3/C(C)=C/C[C@@H]4C[C@@H](C[C@]5(C=C[C@H](C)[C@@H](C(C)C)O5)O4)OC(=O)[C@@H]4C=C(C)[C@@H](O)[C@H]5OC/C(=C\C=C\[C@@H]3C)[C@]54O)C[C@@H]2OC)O[C@@H](C)[C@@H]1O`: the percent effect was 0.328% and -5.15%.
Then `CCCc1nc(C(C)(C)O)c(C(=O)OCc2oc(=O)oc2C)n1Cc1ccc(-c2ccccc2-c2nnn[nH]2)cc1` [olmesartan medoxomil], with 2% and -5.63% and 0.1%; and `CC(COc1ccccc1)NC(C)C(O)c1ccc(O)cc1` (stereo not given) [isoxsuprine], with -1.58% and -14.8%.
Take `COC(=O)Nc1nc2cc(Sc3ccccc3)ccc2[nH]1` [fenbendazole]: the percent effect is -16.3% and -10.6%.
The figure for `c1cc(CN2CCCNCCNCCCNCC2)ccc1CN1CCCNCCNCCCNCC1` [Mozobil] is -12.7% and -3.64%; for `CC(C)NNC(=O)c1ccncc1` [iproniazid] it is -3.95% and -5.81%; for `Fc1ccc([C@@H]2CCNC[C@H]2COc2ccc3c(c2)OCO3)cc1` [paroxetine] it is -0.587% and 6.3%.
Take `OCCN1CCN(CCCN2c3ccccc3Sc3ccc(C(F)(F)F)cc32)CC1` [fluphenazine]: the percent effect was -2.2% and -3.44%.
Take `COc1ccc(C(=O)NCc2ccc(OCCN(C)C)cc2)cc1OC` [itopride]: the percent effect is -0.968% and -7.69%.
For the molecule `CC(C)(C)NC(=O)[C@H]1CC[C@H]2[C@@H]3CC[C@H]4NC(=O)C=C[C@]4(C)[C@H]3CC[C@]12C` [finasteride], the percent effect is -4.93% and 1.76%.
On to `C#C[C@]1(O)CC[C@H]2[C@@H]3[C@H](C)CC4=C(CCC(=O)C4)[C@H]3CC[C@@]21C` [tibolone], for which the percent effect was 0.216% and -2.79%.
As to `O=C(c1ccc(OCCN2CCCCC2)cc1)c1c(-c2ccc(O)cc2)sc2cc(O)ccc12` [raloxifene], the percent effect was 0.798% and -5.1%.
The figure for `CCOC(=O)[C@H](CCc1ccccc1)N[C@@H](C)C(=O)N1Cc2ccccc2C[C@H]1C(=O)O` [quinapril] is 2.84% and -7.36%; for `Cc1ccc(C(=O)c2ccc(CC(=O)O)n2C)cc1` [tolmetin] it is -1.37% and 0.949%; for `Clc1ccc2c(c1)CCc1cccnc1C2=C1CCNCC1` [desloratadine] it is -3.19% and -17.4%.
For the molecule `C#C[C@]1(O)CC[C@H]2[C@@H]3CCc4cc(OC5CCCC5)ccc4[C@H]3CC[C@@]21C` [quinestrol], the percent effect was -16.9% and -5.12%.
Turning to `C[C@@H](O)[C@@H]1NC(=O)[C@H](CCCCN)NC(=O)[C@@H](Cc2c[nH]c3ccccc23)NC(=O)[C@H](Cc2ccccc2)NC(=O)[C@@H](NC(=O)[C@H](N)Cc2ccccc2)CSSC[C@@H](C(=O)N[C@H](CO)[C@@H](C)O)NC1=O` [Octreotide], the percent effect is -2.24% and -4.19%.
With `C=C1/C(=C\C=C2/CCC[C@]3(C)[C@@H]([C@H](C)/C=C/[C@@H](O)C4CC4)CC[C@@H]23)C[C@@H](O)C[C@@H]1O` [calcipotriol], the percent effect is -8.03% and 0.422%.
As for `Cn1c(=O)c2c(ncn2CC2OCCO2)n(C)c1=O` [doxofylline], the percent effect was -1.46% and -13.9%.
Regarding `CN(C)CCOC(c1ccccc1)c1ccccc1` [diphenhydramine], the percent effect is 2.17% and -9.85%.
As to `C[C@H]1C[C@@H]2[C@H]([C@@H](O)C[C@@]3(C)[C@H]2CC[C@]3(O)C(=O)CO)[C@@]2(C)C=CC(=O)C=C12` [methylprednisolone], the percent effect was -1.05% and -2.95%.
For the molecule `CCNC(=O)/C=C/c1cccc(Br)c1`, the percent effect is 2.22% and -2.5%.
Take `COc1ccccc1OCCNCC(O)COc1cccc2[nH]c3ccccc3c12` (stereo not given) [carvedilol]: the percent effect is -2.76% and -0.682% and -0.737%.
Consider `COc1cc(Cc2cnc(N)nc2N)cc(OC)c1OC` [trimethoprim], for which the percent effect is -6.91% and -4.95%.
For the molecule `Nc1ccn([C@@H]2O[C@H](CO)[C@@H](O)[C@@H]2O)c(=O)n1` [cytarabine], the percent effect was -2.56% and -12.1%.
For `Nc1ccn([C@H]2CC[C@@H](CO)O2)c(=O)n1` [zalcitabine], the percent effect was -1.73% and -26.1%.
As for `CN1CCC(=C2c3ccccc3CC(=O)c3sccc32)CC1` [ketotifen], the percent effect is -9.89% and -8.79%.
For `NS(=O)(=O)c1cc(C(=O)O)c(NCc2ccco2)cc1Cl` [furosemide], the percent effect was -1.76% and -6.02%.
With `CC/C(=C(\c1ccccc1)c1ccc(OCCN(C)C)cc1)c1ccccc1` [tamoxifen], the percent effect is 0.601% and -0.499% and 3.46%.
As to `CC1(C)O[C@@H]2C[C@H]3[C@@H]4C[C@H](F)C5=CC(=O)C=C[C@]5(C)[C@@]4(F)[C@@H](O)C[C@]3(C)[C@]2(C(=O)CO)O1` [fluocinolone acetonide], the percent effect was -5.49% and -1.32%.
With `C[C@]12CC[C@@H]3c4ccc(OC(=O)N(CCCl)CCCl)cc4CC[C@H]3[C@@H]1CC[C@@H]2O` [estramustine], the percent effect is -4.02% and -11%.
As for `Cc1c(Cl)cccc1Nc1ccccc1C(=O)O` [tolfenamic acid], the percent effect was 1.94% and -0.234%.
Take `NC[C@H]1O[C@H](O[C@H]2[C@H](O)[C@@H](O[C@H]3O[C@H](CO)[C@@H](O)[C@H](N)[C@H]3O)[C@H](N)C[C@@H]2N)[C@H](N)C[C@@H]1O` [tobramycin]: the percent effect is -2.42% and -4.9%.
For the molecule `COc1ccc([C@@H]2Sc3ccccc3N(CCN(C)C)C(=O)[C@@H]2OC(C)=O)cc1` [diltiazem], the percent effect was 13% and -7.77%.
Then `O=C1c2c(O)ccc(O)c2C(=O)c2c(NCCNCCO)ccc(NCCNCCO)c21` [mitoxantrone], with -3.7% and -11.9%.
As for `C[C@@H]1C[C@H]2[C@@H]3C[C@H](F)C4=CC(=O)C=C[C@]4(C)[C@@]3(F)[C@@H](O)C[C@]2(C)[C@@]1(O)C(=O)CO` [flumetasone], the percent effect is -2.13% and -1.65%.
Take `NC[C@@H]1O[C@H](O[C@H]2[C@@H](O)[C@H](O[C@@H]3[C@@H](O)[C@H](N)C[C@H](N)[C@H]3O[C@H]3O[C@H](CO)[C@@H](O)[C@H](O)[C@H]3N)O[C@@H]2CO)[C@H](N)[C@@H](O)[C@@H]1O` [paromomycin]: the percent effect is -0.81% and -5.01% and -1.64%.

The record behind these values is the supplement of paper PMC8256030.
